From paper PMC11321042, “An invariant C-terminal tryptophan in McdB mediates its interaction and positioning function with carboxysomes” (Molecular Biology of the Cell, 2024) come the findings set out here.

The target in experiment [1] is Maintenance of carboxysome distribution protein B (McdB) from Halothiobacillus neapolitanus, wild type (Halothiobacillus neapolitanus) (UniProt D0KZ81). Put plainly: SEC-MALS; 50 µl at 1.5 mg/ml on a Shodex PROTEIN KW-804 column, 0.4 ml/min, 150 mM KCl, 20 mM Tris-HCl pH 8.2; both purified.
Experiment [2] deals with Se McdB[CTD] (Synechococcus elongatus PCC 7942) (UniProt Q8GJM6). In words: SEC; 500 µl at 1.5 mg/ml on Superdex 75 Increase 10/300 GL, 0.4 ml/min, 150 mM KCl, 20 mM Tris-HCl pH 8.2; full-length Hn McdB (10 kDa) and Se McdB[NTD] peptide (2.3 kDa) as sizing standards; both purified. (SEC sorts molecules by how far they enter the pores of the column.)

No constants are given. Whether binding was seen depends on the method and setting.

B1: Maintenance of carboxysome distribution protein B (McdB) from Halothiobacillus neapolitanus, wild type (protein, UniProt D0KZ81 1-96)
chain: MTNLEDKLSASIKTENKDTIAPASTPAKPAARSAAPETTKPASTGAKPATRTAAKKPVARATTTKPAVSKSSKPSADDIQVPAHDTSTHPRRVWPD
Turning to B1, in experiment [1], the binding entry is “no binding (tested: 1.5 mg/ml)”.

As to LDLVLGQTTLREEVTLLRQELDQLKRKLHGW (domain or fragment, UniProt Q8GJM6 122-152) [Se McdB[CTD]], the binding entry in experiment [2] is recorded as “no binding (tested: 1.5 mg/ml)”.
